According to PMC5071832:
These are yes or no findings as the source states them, for the method shown. Some binding calls cover weakened binding; strength is not graded here.

Chains of the proteins cited; added tags and fusions are not shown. Residues count along the entry.
UniProt P48775, residues 18-389: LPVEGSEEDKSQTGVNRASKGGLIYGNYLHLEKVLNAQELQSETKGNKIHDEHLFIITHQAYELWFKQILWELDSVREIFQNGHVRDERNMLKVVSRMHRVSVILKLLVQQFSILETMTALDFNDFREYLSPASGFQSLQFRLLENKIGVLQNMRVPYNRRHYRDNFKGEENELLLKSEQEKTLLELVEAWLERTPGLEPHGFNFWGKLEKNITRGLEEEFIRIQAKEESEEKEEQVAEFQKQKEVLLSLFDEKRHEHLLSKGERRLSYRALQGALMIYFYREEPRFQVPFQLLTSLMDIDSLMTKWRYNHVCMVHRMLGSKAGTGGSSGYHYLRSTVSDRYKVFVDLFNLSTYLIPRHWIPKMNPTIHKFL

Molecular target: human tryptophan 2,3-dioxygenase (human) (UniProt P48775)
Assay: crystal structure; ferrous hTDO (45 mg/ml) with 10 mM L-Trp, under-oil microbatch, anaerobic, 18 °C; precipitant 50 mM sodium citrate pH 5.6, 5% PEG 3350, 2% Tacsimate pH 5; one crystal mounted anaerobically, one soaked overnight in O2-saturated solution; four subunits (A-D) form the tetramer; both purified

binding: binds
Substance: human tryptophan 2,3-dioxygenase (from UniProt P48775 18-389) (enzyme)
